Results on one sequence are retold here after PMC5627055, “Interactions of the Bacillus subtilis DnaE polymerase with replisomal proteins modulate its activity and fidelity” (Open Biology, 2017).

For at least one entry, the source does not settle the construct or the ends of the probe. Weaker means in comparison with the reference protein, sequence or condition of that experiment. Tags and fusion partners may be left off the protein sequences shown.

In the data set the target is T1, DnaE (UniProt O34623).
T1 sequence (looked up, limits assumed): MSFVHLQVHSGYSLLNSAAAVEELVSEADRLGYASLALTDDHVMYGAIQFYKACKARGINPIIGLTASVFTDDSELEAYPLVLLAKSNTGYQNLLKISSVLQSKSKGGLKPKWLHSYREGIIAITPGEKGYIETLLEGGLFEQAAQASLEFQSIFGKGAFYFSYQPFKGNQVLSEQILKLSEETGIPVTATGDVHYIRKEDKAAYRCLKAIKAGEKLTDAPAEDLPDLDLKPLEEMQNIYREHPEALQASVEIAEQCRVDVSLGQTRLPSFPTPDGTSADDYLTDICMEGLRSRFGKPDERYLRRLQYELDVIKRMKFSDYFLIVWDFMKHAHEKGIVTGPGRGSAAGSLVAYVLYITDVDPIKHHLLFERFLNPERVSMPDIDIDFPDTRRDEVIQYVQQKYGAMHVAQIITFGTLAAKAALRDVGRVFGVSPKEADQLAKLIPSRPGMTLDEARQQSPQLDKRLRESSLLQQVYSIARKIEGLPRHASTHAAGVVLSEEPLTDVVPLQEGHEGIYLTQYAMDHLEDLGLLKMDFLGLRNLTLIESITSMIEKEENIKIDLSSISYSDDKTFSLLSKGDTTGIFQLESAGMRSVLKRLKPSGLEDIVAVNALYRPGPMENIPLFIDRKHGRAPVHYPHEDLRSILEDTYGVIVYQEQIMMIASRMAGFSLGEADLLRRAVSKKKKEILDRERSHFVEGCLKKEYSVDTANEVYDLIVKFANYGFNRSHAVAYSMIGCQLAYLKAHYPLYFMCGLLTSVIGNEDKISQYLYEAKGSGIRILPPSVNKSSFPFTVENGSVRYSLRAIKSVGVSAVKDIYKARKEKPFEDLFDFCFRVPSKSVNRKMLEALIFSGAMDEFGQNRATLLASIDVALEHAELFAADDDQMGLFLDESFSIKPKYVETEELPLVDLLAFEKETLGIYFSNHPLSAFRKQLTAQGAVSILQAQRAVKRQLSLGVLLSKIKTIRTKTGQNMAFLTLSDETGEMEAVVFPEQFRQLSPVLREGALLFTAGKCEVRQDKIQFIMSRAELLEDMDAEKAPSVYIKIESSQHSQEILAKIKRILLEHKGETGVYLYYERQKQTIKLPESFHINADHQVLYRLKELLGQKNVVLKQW
The data set can be described thus: EMSA. Particulars: 10 mM Mg2+, slight preference for DNA-primed over RNA-primed; RNA primer strand; EMSA: 20 mM HEPES pH 7.5, 50 mM NaCl, 10 mM MgCl2, 1 mM DTT, 0.66 nM radiolabelled substrate, 37 C 5 min; 5% native PAGE; recombinant protein; protein details: N-terminal His6-MBP removed by TEV; DNA:RNA hybrid. (Mobility shift assays separate free from complexed probe on a gel.)

For “ACACACACACACACACACACACACCCCCTT / AAGGGGGUGUGUGUG [RNA-primed 30mer template]”, the binding result is on record as “binds more weakly”.
